Measured values taken from article PMC8096068, “The canonical α-SNAP is essential for gametophytic development in Arabidopsis” (PLoS Genetics, 2021).
Results are given in words; binding and its absence hold for the method and conditions named. Binding can be weak; no strength is given. For part of these data: Sequences can lack the tags named with a protein. For part of these data: Binding seen in cells or lysates may run through a third protein.

How the values were obtained:
[1] = molecular target: T1, NSF (BiFC fusion) (Arabidopsis) (UniProt Q9M0Y8); test: split reporter; BiFC with YN- and YC-vectors in tobacco (Nicotiana tabacum) leaf epidermal cells, transient agrobacterium infiltration; YFP signal by CLSM
T1 sequence: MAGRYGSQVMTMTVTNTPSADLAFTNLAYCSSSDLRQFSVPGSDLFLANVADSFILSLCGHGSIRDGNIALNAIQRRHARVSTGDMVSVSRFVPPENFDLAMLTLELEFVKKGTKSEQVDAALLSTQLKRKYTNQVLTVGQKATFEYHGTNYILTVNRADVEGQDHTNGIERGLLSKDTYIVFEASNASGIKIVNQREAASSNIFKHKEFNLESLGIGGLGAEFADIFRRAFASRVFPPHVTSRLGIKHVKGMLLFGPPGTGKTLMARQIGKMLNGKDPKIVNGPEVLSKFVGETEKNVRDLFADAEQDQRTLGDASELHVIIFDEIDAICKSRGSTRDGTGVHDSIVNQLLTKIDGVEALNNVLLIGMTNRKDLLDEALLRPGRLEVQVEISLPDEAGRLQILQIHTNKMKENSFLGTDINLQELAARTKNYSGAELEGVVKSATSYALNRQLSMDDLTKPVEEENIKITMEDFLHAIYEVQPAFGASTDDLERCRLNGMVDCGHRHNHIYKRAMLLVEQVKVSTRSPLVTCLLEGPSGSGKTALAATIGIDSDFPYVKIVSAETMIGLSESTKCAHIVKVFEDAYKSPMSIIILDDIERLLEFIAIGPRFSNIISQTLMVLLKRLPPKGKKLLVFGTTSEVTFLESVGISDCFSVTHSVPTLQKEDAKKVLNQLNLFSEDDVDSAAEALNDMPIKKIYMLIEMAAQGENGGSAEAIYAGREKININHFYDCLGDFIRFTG

[2] = molecular target: T2, mCherry-NSF (Arabidopsis) (UniProt Q9M0Y8); test: FRET or BRET; FRET between GFP-ASNAP.1 or GFP-ASNAP.2 and mCherry-NSF in transiently transformed Arabidopsis protoplasts; mCherry alone as control
T2 sequence: T1 sequence

His-NSF = molecular target: T3, His-NSF (Arabidopsis, UniProt Q9M0Y8 1-742); test: pull-down; in vitro pull-down; NSF-His used to pull down ASNAP.1-GST or ASNAP.2-GST; recombinant proteins from E. coli, affinity-purified; both purified
T3 construct: Arabidopsis thaliana N-ethylmaleimide-sensitive factor (NSF), At4g04910; also called NSF-His; his-tagged NSF
T3 sequence (looked up): T1 sequence

ASNAP.2 (BiFC fusion) (Arabidopsis)
binding [1]: binds

GFP-ASNAP.2 (Arabidopsis)
binding [2]: binds

GST-ASNAP.2 (Arabidopsis)
binding (His-NSF): binds
